These are yes or no findings as the source states them, for the method shown. For some of these results: Binding calls can cover weak binding; strength is not graded here.
Experiments:
[1] = target: collagen alpha-3 (VI) (human) (UniProt P12111); assay: ELISA, collagen coated on plate, biotinylated peptide detected with HRP-streptavidin, A490. Binding was not mutually dose-dependent.
[2] = target: collagen alpha-1 (XII) (human) (UniProt Q99715); assay: ELISA, collagen coated on plate (collagen alpha-1 (XII) at 3.3 ug/mL for the peptide titration), biotinylated peptide detected with HRP-streptavidin, A490
[3] = target: collagen alpha-1 (XII) (human) (UniProt Q99715); assay: ELISA, collagen coated on plate, biotinylated peptide detected with HRP-streptavidin
[4] = target: collagen alpha-3 (VI) (human) (UniProt P12111); assay: as above

The chains behind the UniProt entries cited, without tags or fusion partners. Where a name states a change or a piece, a line headed by the entry shows the natural chain unless it says otherwise.
UniProt P12111: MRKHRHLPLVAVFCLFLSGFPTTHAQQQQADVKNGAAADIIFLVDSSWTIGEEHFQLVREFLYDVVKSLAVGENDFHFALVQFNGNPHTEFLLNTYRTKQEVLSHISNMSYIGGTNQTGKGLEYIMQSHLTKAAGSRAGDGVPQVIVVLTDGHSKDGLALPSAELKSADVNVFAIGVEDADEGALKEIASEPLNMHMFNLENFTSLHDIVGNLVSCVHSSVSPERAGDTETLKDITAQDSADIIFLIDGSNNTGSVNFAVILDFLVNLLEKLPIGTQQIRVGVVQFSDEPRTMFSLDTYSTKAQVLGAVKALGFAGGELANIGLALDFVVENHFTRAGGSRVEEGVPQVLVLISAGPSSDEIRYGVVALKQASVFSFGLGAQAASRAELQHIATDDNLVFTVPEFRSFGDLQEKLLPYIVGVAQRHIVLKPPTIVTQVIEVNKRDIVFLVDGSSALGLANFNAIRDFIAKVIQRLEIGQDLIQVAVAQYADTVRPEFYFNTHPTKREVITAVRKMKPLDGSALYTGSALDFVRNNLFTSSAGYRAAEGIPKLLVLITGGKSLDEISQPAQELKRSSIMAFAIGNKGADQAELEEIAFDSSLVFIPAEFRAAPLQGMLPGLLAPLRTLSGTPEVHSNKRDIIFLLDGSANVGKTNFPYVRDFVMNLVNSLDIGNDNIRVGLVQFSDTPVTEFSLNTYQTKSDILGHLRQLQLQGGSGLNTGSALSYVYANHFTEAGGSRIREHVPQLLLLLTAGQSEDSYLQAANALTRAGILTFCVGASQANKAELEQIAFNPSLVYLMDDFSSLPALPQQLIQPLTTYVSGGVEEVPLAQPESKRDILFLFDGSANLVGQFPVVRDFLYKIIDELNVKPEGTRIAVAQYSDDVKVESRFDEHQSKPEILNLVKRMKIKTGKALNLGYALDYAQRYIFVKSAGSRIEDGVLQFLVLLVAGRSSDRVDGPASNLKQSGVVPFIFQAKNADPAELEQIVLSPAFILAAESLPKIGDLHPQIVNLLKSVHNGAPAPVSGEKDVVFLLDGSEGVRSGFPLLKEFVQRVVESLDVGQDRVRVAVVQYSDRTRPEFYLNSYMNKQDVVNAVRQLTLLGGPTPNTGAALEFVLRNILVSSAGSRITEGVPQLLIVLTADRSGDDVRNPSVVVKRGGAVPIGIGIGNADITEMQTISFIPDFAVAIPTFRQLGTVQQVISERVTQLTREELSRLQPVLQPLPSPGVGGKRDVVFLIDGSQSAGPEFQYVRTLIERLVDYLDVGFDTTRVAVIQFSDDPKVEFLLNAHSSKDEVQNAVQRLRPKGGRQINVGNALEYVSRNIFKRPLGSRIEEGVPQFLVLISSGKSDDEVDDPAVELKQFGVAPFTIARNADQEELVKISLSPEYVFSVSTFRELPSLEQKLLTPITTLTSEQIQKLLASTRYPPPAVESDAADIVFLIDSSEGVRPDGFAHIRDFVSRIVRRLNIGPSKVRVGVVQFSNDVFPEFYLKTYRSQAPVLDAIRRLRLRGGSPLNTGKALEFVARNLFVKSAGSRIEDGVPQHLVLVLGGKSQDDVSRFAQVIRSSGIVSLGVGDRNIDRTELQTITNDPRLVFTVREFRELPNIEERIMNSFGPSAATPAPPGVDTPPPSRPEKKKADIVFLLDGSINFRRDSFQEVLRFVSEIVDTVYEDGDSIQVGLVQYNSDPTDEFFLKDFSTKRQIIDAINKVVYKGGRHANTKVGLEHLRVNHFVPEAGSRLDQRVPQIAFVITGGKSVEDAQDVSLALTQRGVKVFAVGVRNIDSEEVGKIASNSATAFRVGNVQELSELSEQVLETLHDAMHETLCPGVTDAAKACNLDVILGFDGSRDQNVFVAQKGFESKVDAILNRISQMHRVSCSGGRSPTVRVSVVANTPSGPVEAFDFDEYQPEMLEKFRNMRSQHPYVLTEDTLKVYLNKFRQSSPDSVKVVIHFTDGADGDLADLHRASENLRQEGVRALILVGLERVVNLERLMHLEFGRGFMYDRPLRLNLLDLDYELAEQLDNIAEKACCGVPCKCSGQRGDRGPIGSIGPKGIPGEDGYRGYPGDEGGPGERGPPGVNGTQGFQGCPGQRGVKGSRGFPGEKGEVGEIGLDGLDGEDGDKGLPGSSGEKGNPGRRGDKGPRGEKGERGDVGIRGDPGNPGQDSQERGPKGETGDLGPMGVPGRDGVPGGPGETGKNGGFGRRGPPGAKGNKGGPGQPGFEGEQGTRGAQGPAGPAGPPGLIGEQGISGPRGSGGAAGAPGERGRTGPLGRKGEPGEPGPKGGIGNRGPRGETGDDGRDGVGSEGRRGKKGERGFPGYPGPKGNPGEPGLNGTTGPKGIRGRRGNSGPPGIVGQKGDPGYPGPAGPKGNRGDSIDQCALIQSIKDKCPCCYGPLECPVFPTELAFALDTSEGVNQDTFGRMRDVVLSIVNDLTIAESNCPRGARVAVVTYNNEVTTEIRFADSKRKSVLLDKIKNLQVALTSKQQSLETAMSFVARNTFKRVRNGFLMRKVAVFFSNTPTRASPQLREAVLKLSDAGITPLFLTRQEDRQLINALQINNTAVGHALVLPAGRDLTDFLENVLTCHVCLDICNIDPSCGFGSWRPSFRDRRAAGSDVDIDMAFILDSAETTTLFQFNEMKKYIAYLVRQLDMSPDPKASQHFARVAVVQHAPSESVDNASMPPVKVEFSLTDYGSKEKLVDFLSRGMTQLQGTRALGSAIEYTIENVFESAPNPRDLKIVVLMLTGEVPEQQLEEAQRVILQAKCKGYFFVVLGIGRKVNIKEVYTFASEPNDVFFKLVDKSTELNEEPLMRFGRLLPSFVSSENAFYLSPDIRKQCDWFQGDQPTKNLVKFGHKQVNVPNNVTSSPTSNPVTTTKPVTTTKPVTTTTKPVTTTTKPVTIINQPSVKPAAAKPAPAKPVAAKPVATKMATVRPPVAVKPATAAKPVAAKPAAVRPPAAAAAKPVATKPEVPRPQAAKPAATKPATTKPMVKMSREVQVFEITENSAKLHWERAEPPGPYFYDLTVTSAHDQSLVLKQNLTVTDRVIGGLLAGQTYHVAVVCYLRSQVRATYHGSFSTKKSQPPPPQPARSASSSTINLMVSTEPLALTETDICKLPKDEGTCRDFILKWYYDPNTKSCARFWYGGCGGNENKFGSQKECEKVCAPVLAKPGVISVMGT
UniProt Q99715: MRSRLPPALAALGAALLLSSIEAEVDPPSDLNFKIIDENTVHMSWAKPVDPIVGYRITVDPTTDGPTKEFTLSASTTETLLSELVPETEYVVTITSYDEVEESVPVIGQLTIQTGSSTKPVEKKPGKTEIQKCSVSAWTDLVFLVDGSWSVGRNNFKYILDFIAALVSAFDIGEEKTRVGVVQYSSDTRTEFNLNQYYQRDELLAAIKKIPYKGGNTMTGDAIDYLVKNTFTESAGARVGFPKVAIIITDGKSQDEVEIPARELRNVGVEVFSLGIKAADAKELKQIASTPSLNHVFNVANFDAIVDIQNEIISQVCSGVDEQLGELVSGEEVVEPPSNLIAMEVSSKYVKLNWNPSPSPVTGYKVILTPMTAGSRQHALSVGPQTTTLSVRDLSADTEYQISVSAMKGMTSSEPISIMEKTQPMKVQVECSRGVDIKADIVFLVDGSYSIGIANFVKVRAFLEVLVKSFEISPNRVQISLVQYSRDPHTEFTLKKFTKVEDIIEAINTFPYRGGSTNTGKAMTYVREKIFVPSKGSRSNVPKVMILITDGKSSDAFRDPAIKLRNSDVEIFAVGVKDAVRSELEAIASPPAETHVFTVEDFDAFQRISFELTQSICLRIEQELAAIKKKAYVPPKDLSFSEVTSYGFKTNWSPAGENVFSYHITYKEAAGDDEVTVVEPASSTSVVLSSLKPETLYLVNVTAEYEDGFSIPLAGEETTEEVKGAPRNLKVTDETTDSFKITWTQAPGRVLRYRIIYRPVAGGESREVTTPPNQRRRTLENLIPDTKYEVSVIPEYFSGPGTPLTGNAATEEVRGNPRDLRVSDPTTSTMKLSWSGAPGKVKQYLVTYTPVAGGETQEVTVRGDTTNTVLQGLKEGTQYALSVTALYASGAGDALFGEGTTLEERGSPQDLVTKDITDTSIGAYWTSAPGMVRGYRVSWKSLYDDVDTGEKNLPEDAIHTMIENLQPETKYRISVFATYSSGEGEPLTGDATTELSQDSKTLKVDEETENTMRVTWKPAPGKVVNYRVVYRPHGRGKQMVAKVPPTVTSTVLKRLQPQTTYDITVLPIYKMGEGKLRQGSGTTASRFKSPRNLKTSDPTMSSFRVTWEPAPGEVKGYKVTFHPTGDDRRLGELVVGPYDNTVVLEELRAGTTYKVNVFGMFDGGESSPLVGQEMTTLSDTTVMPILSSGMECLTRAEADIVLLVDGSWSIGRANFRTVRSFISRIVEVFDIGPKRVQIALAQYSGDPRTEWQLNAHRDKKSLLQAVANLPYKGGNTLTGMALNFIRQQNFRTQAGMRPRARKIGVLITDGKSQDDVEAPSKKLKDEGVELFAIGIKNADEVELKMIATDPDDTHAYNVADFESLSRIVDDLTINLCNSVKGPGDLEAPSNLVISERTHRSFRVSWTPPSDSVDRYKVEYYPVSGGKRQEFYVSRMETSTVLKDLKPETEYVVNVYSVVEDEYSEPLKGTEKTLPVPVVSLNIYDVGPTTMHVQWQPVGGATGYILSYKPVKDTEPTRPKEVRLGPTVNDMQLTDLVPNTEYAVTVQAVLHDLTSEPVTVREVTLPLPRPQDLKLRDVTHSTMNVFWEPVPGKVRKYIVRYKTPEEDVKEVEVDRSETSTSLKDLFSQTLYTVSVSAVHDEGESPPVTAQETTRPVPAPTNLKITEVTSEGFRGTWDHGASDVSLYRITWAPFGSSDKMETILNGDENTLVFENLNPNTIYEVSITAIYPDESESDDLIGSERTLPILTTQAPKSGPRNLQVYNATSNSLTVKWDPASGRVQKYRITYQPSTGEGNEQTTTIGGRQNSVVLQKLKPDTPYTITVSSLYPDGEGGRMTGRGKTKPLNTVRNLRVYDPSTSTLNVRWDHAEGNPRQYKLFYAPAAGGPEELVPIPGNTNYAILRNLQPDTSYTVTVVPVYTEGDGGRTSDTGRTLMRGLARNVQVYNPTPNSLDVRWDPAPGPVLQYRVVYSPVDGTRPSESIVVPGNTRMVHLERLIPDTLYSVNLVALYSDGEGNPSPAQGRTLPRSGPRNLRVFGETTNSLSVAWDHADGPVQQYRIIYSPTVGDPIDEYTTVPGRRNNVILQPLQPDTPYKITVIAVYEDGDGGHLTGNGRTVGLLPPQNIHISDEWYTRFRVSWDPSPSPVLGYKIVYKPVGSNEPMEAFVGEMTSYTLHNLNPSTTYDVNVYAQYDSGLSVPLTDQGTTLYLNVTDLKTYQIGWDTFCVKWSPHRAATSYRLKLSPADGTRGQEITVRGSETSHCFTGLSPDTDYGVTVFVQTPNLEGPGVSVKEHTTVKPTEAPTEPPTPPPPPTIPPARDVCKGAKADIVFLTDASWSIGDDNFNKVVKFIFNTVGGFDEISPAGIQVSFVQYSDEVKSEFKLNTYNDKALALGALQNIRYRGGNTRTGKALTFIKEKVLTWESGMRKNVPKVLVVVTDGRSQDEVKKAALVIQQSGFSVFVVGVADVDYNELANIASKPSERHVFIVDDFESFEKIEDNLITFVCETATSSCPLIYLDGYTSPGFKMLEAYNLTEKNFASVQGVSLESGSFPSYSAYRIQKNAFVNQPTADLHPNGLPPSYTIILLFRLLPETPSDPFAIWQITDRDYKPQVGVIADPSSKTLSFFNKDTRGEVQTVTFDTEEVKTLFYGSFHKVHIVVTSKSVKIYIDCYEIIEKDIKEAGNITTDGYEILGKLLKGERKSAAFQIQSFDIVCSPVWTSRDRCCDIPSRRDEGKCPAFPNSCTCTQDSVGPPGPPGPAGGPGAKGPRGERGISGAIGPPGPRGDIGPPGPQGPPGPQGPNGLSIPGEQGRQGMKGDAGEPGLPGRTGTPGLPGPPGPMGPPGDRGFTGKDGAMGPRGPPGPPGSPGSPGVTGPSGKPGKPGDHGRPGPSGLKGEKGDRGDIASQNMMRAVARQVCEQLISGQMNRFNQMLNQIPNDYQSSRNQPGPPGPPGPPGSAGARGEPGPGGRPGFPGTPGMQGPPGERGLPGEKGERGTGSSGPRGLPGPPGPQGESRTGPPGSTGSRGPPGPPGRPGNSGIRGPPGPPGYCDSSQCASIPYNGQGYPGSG

B1: biotinylated C5-24 peptide (peptide)
peptide: DLQYWYPIWDTH
modifications: biotinylated (site and linker not stated for the ELISA peptide)
binding [1]: binds | binding [2]: binds

B2: biotin-scrambled peptide (peptide)
peptide: DYLWQYPDITWH
modifications: biotinylated (site and linker not stated for the ELISA peptide)
binding [3]: no binding | binding [4]: no binding

Source: patent publication US20230026969A1, “Oligopeptide, Testing Kit Thereof And Medical Composition Thereof” (China Medical University, priority 2019, published 2023)
